In paper PMC8705783, “The Effect of Conjugation with Octaarginine, a Cell-Penetrating Peptide on Antifungal Activity of Imidazoacridinone Derivative” (International Journal of Molecular Sciences, 2021):

Experiments:
[1] = test system: Saccharomyces cerevisiae ATCC 9763
[2] = test system: Candida glabrata ATCC 90030
[3] = test system: Candida albicans ATCC 10231
[4] = test system: Candida parapsilosis ATCC 22019

## N=C(N)NCCC[C@H](NC(=O)[C@H](CCCNC(=N)N)NC(=O)[C@H](CCCNC(=N)N)NC(=O)[C@H](CCCNC(=N)N)NC(=O)[C@H](CCCNC(=N)N)NC(=O)[C@H](CCCNC(=N)N)NC(=O)[C@H](CCCNC(=N)N)NC(=O)[C@@H](N)CCCNC(=N)N)C(=O)NCCNc1ccc2ncn3c4ccc(O)cc4c(=O)c1c23 [Compound 1-R8]
[1]; HEK293 vs Saccharomyces cerevisiae ATCC 9763
  IC50 HEK293/MIC90 (mycostatic selectivity index): 2.22
[1]; HEPG2 vs Saccharomyces cerevisiae ATCC 9763
  IC50 HEPG2/MIC90 (mycostatic selectivity index): 1.58
Candida krusei ATCC 6258; HEK293 vs Candida krusei ATCC 6258
  IC50 HEK293/MIC90 (mycostatic selectivity index): 4.44
Candida krusei ATCC 6258; HEPG2 vs Candida krusei ATCC 6258
  IC50 HEPG2/MIC90 (mycostatic selectivity index): 3.17
[2]; HEK293 vs Candida glabrata ATCC 90030
  IC50 HEK293/MIC90 (mycostatic selectivity index): 0.56
[2]; HEPG2 vs Candida glabrata ATCC 90030
  IC50 HEPG2/MIC90 (mycostatic selectivity index): 0.40
[3]; HEK293 vs Candida albicans ATCC 10231, MIC converted to micromolar
  IC50 HEK293/MIC90 (mycostatic selectivity index): 2.22
[3]; HEPG2 vs Candida albicans ATCC 10231
  IC50 HEPG2/MIC90 (mycostatic selectivity index): 1.58
[4]; HEK293 vs Candida parapsilosis ATCC 22019
  IC50 HEK293/MIC90 (mycostatic selectivity index): 8.88
[4]; HEPG2 vs Candida parapsilosis ATCC 22019
  IC50 HEPG2/MIC90 (mycostatic selectivity index): 6.33
